From patent publication US20100136537A1, “PHOTORECEPTOR PRECURSOR CELLS” (THE REGENTS OF THE UNIVERSITY OF MICHIGAN, priority 2006, published 2010)
No constants are given. Whether binding was seen depends on the method and setting. In cells and extracts the contact can be indirect. Some entries that bind do so weakly or less than the wild type.

By UniProt entry, the sequences of proteins in these tests, tags left out. Where a name states a change or a piece, a line headed by the entry shows the natural chain unless it says otherwise.
UniProt O43186: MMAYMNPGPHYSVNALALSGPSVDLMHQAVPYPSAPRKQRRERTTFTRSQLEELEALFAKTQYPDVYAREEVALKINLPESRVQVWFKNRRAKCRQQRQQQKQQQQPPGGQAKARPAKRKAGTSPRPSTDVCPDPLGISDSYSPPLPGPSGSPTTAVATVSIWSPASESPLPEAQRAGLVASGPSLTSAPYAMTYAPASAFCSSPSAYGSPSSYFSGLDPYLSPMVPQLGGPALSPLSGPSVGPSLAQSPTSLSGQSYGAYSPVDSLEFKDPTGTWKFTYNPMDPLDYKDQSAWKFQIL
UniProt Q9Y5X4: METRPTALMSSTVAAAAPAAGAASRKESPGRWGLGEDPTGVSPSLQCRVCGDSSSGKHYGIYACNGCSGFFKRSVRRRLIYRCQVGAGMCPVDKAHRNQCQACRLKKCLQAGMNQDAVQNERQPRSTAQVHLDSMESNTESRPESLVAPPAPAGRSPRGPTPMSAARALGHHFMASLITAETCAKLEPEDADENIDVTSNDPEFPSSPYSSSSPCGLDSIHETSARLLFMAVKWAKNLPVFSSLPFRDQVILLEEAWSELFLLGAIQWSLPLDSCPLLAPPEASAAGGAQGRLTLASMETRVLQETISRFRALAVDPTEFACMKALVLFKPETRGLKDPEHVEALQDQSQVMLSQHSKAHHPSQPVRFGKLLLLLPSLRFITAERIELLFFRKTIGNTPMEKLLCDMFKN
UniProt P54845: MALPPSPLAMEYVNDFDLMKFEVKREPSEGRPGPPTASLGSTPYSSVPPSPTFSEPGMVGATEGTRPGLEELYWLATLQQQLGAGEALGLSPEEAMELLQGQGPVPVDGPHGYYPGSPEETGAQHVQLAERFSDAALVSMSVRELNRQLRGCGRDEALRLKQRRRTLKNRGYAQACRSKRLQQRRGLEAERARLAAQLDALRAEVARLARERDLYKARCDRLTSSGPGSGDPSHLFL

Columns and labels:
[1] = molecular target: CRX (cone rod homeobox protein) (UniProt O43186); test: co-IP
[2] = molecular target: NR2E3 (photoreceptor-specific orphan nuclear receptor) (UniProt Q9Y5X4); test: co-IP

binding [1] | binding [2] | Substance
binds | binds | human NRL mutant p.S50T (Xpress-tagged) (from UniProt P54845 1-237)
binds | binds | wild-type human NRL (Xpress-tagged, from pcDNA4 His/Max C) (from UniProt P54845 1-237)
binds | binds | human NRL mutant p.P51S (Xpress-tagged) (from UniProt P54845 1-237)
